According to publication doi:10.1101/2022.04.12.488020:
These are yes or no findings as the source states them, for the method shown. Binding seen in cells or lysates may run through a third protein. Some entries that bind do so weakly or less than the wild type. For some assays here: Tags and fused reporters may be left off the sequences shown.

By UniProt entry, the sequences of proteins in these tests, tags left out. Residues count along the entry.
UniProt P06179: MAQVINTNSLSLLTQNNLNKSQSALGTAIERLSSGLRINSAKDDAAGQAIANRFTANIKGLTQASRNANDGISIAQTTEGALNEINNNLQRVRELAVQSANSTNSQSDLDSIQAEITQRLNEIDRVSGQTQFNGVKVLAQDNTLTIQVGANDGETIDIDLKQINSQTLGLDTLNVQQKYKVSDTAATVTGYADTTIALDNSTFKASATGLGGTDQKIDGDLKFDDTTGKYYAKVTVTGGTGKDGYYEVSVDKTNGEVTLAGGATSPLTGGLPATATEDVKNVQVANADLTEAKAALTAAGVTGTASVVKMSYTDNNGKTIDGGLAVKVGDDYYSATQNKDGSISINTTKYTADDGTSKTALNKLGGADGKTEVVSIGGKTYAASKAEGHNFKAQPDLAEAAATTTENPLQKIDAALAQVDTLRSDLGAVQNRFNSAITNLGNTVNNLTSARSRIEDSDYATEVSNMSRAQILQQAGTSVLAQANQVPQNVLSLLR
UniProt O60602, residues 21-858: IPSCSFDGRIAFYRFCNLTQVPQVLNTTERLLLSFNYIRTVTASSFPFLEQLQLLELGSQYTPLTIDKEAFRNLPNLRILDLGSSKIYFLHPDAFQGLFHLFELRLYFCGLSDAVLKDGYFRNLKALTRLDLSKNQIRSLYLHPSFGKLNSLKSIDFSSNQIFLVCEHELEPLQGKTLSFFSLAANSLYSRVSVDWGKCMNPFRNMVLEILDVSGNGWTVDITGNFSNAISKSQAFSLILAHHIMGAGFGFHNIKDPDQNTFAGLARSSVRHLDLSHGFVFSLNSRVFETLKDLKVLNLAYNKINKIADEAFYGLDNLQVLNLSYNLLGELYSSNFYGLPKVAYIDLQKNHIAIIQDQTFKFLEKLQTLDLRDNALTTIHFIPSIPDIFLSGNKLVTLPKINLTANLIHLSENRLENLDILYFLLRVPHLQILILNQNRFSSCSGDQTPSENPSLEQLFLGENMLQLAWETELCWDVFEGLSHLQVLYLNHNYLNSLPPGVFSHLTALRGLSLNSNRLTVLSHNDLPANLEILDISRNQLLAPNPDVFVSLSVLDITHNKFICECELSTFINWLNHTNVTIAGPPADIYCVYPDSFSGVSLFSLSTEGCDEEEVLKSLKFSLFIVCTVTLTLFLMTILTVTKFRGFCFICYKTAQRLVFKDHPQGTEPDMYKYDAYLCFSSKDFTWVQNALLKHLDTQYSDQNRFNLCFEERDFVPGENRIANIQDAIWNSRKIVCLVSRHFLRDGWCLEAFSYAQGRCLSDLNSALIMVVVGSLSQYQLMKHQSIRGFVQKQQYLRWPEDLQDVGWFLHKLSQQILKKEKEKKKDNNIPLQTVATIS

Tests used:
[1] = target: FliC flagellin of Salmonella enterica serovar Typhimurium, 6xHis-Myc-tagged (Salmonella enterica serovar Typhimurium) (UniProt P06179); assay: pull-down
[2] = target: T1, FlaA flagellin of Helicobacter pylori (HpFlaA), 6xHis-Myc-tagged (Helicobacter pylori) (UniProt P0A0S1); assay: pull-down
T1 sequence: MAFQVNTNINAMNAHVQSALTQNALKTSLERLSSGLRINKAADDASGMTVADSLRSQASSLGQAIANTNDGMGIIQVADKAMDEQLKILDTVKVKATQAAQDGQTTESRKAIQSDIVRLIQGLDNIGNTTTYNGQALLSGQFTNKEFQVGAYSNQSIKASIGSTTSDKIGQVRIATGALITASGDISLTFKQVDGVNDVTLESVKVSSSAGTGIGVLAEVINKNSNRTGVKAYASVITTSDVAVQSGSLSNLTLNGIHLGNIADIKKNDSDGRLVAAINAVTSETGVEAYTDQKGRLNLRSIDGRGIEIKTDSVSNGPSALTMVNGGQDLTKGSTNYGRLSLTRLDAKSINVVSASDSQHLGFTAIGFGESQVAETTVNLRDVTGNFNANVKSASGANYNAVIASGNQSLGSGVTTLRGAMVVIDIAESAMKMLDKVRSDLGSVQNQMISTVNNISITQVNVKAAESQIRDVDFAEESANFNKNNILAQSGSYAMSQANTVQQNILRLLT

Which binding [1] does the source give for “full-length human TLR5, HA-tagged (TLR5-HA) (from UniProt O60602 21-858) (receptor)” here?
The binding was “binds”.

And the binding [2]?
Its binding is “no binding”.
